PubChem BioAssay AID743121, NCATS | 2013

- Screen: 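Partners whose loss is lethal together with topoisomerase I blockade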 (primary screen)
- Cells: MDA-MB-231 cells, a human breast cancer line
- Reagent: single siRNA against human genes, 20 nM siRNA (0.8 pmol per well)
- Time to read-out: 120 h (drug added 48 h after transfection, read 72 h later)
- Challenge: camptothecin 20 nM (about EC30) for 72 h; vehicle 0.1% DMSO in parallel plates
- Measurement: 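CellTiter-Glo ATP signal, scaled to control siRNA as percent viability; sensitisation given as log2 of untreated divided by camptothecin-treated viability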
- Scale: log2 vehicle/camptothecin viability: higher = stronger sensitisation to camptothecin; viability with camptothecin: higher = more viable cells
- Units: viability with camptothecin in % of control
- Rule for the call: 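Active genes have an RSA gene-level p-value below 0.001, computed from the ratios of their separate siRNAs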
This is a random part of about 26,000 reagents. 167 of all reagents (0.63%) count as active. 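Calls are per gene from RSA p-values that are not deposited; an individual active-marked siRNA can sensitise only weakly.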 Reagents against one gene are numbered here. Not all columns of the deposit are shown. No sequences are given here.

{"gene":"FZD8 (GeneID 8325)","reagent no.":1,"log2 vehicle/camptothecin viability":-0.568,"viability with camptothecin":96,"Outcome":"inactive"}
{"gene":"FZD8 (GeneID 8325)","reagent no.":2,"log2 vehicle/camptothecin viability":0.00304,"viability with camptothecin":35.6,"Outcome":"inactive"}
{"gene":"FZD8 (GeneID 8325)","reagent no.":3,"log2 vehicle/camptothecin viability":-0.0519,"viability with camptothecin":111,"Outcome":"inactive"}
{"gene":"FZD8 (GeneID 8325)","reagent no.":4,"log2 vehicle/camptothecin viability":-0.348,"viability with camptothecin":95.5,"Outcome":"inactive"}
{"gene":"PAOX (GeneID 196743)","reagent no.":1,"log2 vehicle/camptothecin viability":-0.254,"viability with camptothecin":103,"Outcome":"inactive"}
{"gene":"PAOX (GeneID 196743)","reagent no.":2,"log2 vehicle/camptothecin viability":-0.528,"viability with camptothecin":66.8,"Outcome":"inactive"}
{"gene":"PAOX (GeneID 196743)","reagent no.":3,"log2 vehicle/camptothecin viability":-0.111,"viability with camptothecin":94.3,"Outcome":"inactive"}
{"gene":"RABL3 (GeneID 285282)","reagent no.":1,"log2 vehicle/camptothecin viability":0.659,"viability with camptothecin":41.4,"Outcome":"inactive"}
{"gene":"RABL3 (GeneID 285282)","reagent no.":2,"log2 vehicle/camptothecin viability":0.169,"viability with camptothecin":93.3,"Outcome":"inactive"}
{"gene":"RABL3 (GeneID 285282)","reagent no.":3,"log2 vehicle/camptothecin viability":-0.207,"viability with camptothecin":114,"Outcome":"inactive"}
{"gene":"RABL3 (GeneID 285282)","reagent no.":4,"log2 vehicle/camptothecin viability":-0.0339,"viability with camptothecin":75.2,"Outcome":"inactive"}
{"gene":"GADD45A (GeneID 1647)","reagent no.":1,"log2 vehicle/camptothecin viability":-0.326,"viability with camptothecin":119,"Outcome":"inactive"}
{"gene":"GADD45A (GeneID 1647)","reagent no.":2,"log2 vehicle/camptothecin viability":-0.112,"viability with camptothecin":98,"Outcome":"inactive"}
{"gene":"GADD45A (GeneID 1647)","reagent no.":3,"log2 vehicle/camptothecin viability":0.129,"viability with camptothecin":47.5,"Outcome":"inactive"}
{"gene":"GADD45A (GeneID 1647)","reagent no.":4,"log2 vehicle/camptothecin viability":-0.296,"viability with camptothecin":97.2,"Outcome":"inactive"}
{"gene":"MATN3 (GeneID 4148)","reagent no.":1,"log2 vehicle/camptothecin viability":0.0552,"viability with camptothecin":22.7,"Outcome":"inactive"}
{"gene":"MATN3 (GeneID 4148)","reagent no.":2,"log2 vehicle/camptothecin viability":0.0414,"viability with camptothecin":84.7,"Outcome":"inactive"}
{"gene":"MATN3 (GeneID 4148)","reagent no.":3,"log2 vehicle/camptothecin viability":-0.0964,"viability with camptothecin":107,"Outcome":"inactive"}
{"gene":"ACTN4 (GeneID 81)","reagent no.":1,"log2 vehicle/camptothecin viability":0.148,"viability with camptothecin":56.6,"Outcome":"inactive"}
{"gene":"ACTN4 (GeneID 81)","reagent no.":2,"log2 vehicle/camptothecin viability":-0.182,"viability with camptothecin":15,"Outcome":"inactive"}
{"gene":"ACTN4 (GeneID 81)","reagent no.":3,"log2 vehicle/camptothecin viability":0.345,"viability with camptothecin":47,"Outcome":"inactive"}
{"gene":"LAP3 (GeneID 51056)","reagent no.":1,"log2 vehicle/camptothecin viability":-0.0393,"viability with camptothecin":14.7,"Outcome":"inactive"}
{"gene":"LAP3 (GeneID 51056)","reagent no.":2,"log2 vehicle/camptothecin viability":-0.212,"viability with camptothecin":64.7,"Outcome":"inactive"}
{"gene":"LAP3 (GeneID 51056)","reagent no.":3,"log2 vehicle/camptothecin viability":-0.159,"viability with camptothecin":106,"Outcome":"inactive"}
{"gene":"GPR26 (GeneID 2849)","reagent no.":1,"log2 vehicle/camptothecin viability":-0.361,"viability with camptothecin":65.2,"Outcome":"inactive"}
{"gene":"GPR26 (GeneID 2849)","reagent no.":2,"log2 vehicle/camptothecin viability":-0.186,"viability with camptothecin":73.1,"Outcome":"inactive"}
{"gene":"GPR26 (GeneID 2849)","reagent no.":3,"log2 vehicle/camptothecin viability":0.657,"viability with camptothecin":42.4,"Outcome":"inactive"}
{"gene":"GPR26 (GeneID 2849)","reagent no.":4,"log2 vehicle/camptothecin viability":0.202,"viability with camptothecin":87.9,"Outcome":"inactive"}
{"gene":"TSPO2 (GeneID 222642)","reagent no.":1,"log2 vehicle/camptothecin viability":-0.203,"viability with camptothecin":65.8,"Outcome":"inactive"}
{"gene":"TSPO2 (GeneID 222642)","reagent no.":2,"log2 vehicle/camptothecin viability":-0.303,"viability with camptothecin":58,"Outcome":"inactive"}
{"gene":"TSPO2 (GeneID 222642)","reagent no.":3,"log2 vehicle/camptothecin viability":-0.113,"viability with camptothecin":44.6,"Outcome":"inactive"}
{"gene":"TSPO2 (GeneID 222642)","reagent no.":4,"log2 vehicle/camptothecin viability":-0.307,"viability with camptothecin":116,"Outcome":"inactive"}
{"gene":"FGB (GeneID 2244)","reagent no.":1,"log2 vehicle/camptothecin viability":0.443,"viability with camptothecin":67.1,"Outcome":"inactive"}
{"gene":"FGB (GeneID 2244)","reagent no.":2,"log2 vehicle/camptothecin viability":-0.296,"viability with camptothecin":117,"Outcome":"inactive"}
{"gene":"FGB (GeneID 2244)","reagent no.":3,"log2 vehicle/camptothecin viability":0.35,"viability with camptothecin":37.8,"Outcome":"inactive"}
{"gene":"FGB (GeneID 2244)","reagent no.":4,"log2 vehicle/camptothecin viability":-0.557,"viability with camptothecin":79.2,"Outcome":"inactive"}
{"gene":"RAB6A (GeneID 5870)","reagent no.":1,"log2 vehicle/camptothecin viability":-0.611,"viability with camptothecin":86.1,"Outcome":"inactive"}
{"gene":"RAB6A (GeneID 5870)","reagent no.":2,"log2 vehicle/camptothecin viability":0.393,"viability with camptothecin":74.8,"Outcome":"inactive"}
{"gene":"RAB6A (GeneID 5870)","reagent no.":3,"log2 vehicle/camptothecin viability":-0.59,"viability with camptothecin":63.4,"Outcome":"inactive"}
{"gene":"RAB6A (GeneID 5870)","reagent no.":4,"log2 vehicle/camptothecin viability":-0.291,"viability with camptothecin":79.2,"Outcome":"inactive"}
{"gene":"MDM4 (GeneID 4194)","reagent no.":1,"log2 vehicle/camptothecin viability":-0.504,"viability with camptothecin":87.4,"Outcome":"inactive"}
{"gene":"MDM4 (GeneID 4194)","reagent no.":2,"log2 vehicle/camptothecin viability":0.058,"viability with camptothecin":100,"Outcome":"inactive"}
{"gene":"MDM4 (GeneID 4194)","reagent no.":3,"log2 vehicle/camptothecin viability":-0.613,"viability with camptothecin":96.8,"Outcome":"inactive"}
{"gene":"MDM4 (GeneID 4194)","reagent no.":4,"log2 vehicle/camptothecin viability":-0.306,"viability with camptothecin":97.3,"Outcome":"inactive"}
{"gene":"HECTD2 (GeneID 143279)","reagent no.":1,"log2 vehicle/camptothecin viability":0.266,"viability with camptothecin":49.1,"Outcome":"inactive"}
{"gene":"HECTD2 (GeneID 143279)","reagent no.":2,"log2 vehicle/camptothecin viability":-0.326,"viability with camptothecin":86.6,"Outcome":"inactive"}
{"gene":"HECTD2 (GeneID 143279)","reagent no.":3,"log2 vehicle/camptothecin viability":-0.236,"viability with camptothecin":84.8,"Outcome":"inactive"}
{"gene":"HECTD2 (GeneID 143279)","reagent no.":4,"log2 vehicle/camptothecin viability":-0.0414,"viability with camptothecin":103,"Outcome":"inactive"}

3 successive reagents already listed, for reference:
{"gene":"RAB6A (GeneID 5870)","reagent no.":2,"log2 vehicle/camptothecin viability":0.393,"viability with camptothecin":74.8,"Outcome":"inactive"}
{"gene":"RAB6A (GeneID 5870)","reagent no.":3,"log2 vehicle/camptothecin viability":-0.59,"viability with camptothecin":63.4,"Outcome":"inactive"}
{"gene":"RAB6A (GeneID 5870)","reagent no.":4,"log2 vehicle/camptothecin viability":-0.291,"viability with camptothecin":79.2,"Outcome":"inactive"}
